# Measured values as given in PubChem BioAssay AID2685 (National Center for Advancing Translational Sciences (NCATS), 2010).
# The other results are listed elsewhere or left out. These are further read-outs of the screen, such as a control signal, another cell line or another target. No call is given for them. Most of these compounds were active or inconclusive in the main read-out, so they are no random draw. Words in brackets tell the shape of the fitted curve; partial curves, single points and poor fits give uncertain potencies.
# Assay: qHTS Assay for Lipid Storage Modulators in Drosophila S3 Cells;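 for cell number change: cells counted by Cell Tracker Red CMTPX staining in the red channel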
# Details: BODIPY lipid droplet fluorescence, 18-24 h; for cell number change: measured here: cell count max response, cells fed with added oleic acid
# Procedure, shortened: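 Drosophila S3 cells loaded with oleic acid (400 uM, as added) and compounds at several concentrations; lipid droplets imaged by 488-nm laser-scanning cytometry, 500–530 nm intensity and object ratio to cell channel. Percent activity normalized to 20 uM Triacsin C.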
# [1] = measured here: cell number channel AC50, cells fed with added oleic acid
# [2] = measured here: lipid fluorescence (Fed channel) AC50, cells fed with added oleic acid
SMILES,cell number change [%],AC50 [1],AC50 [2]
COc1cc2c(cc1OC)C(C)N(C(=O)c1ccc(C)o1)CC2 (stereo not drawn),60.3,"14.6 µM [rising, single point]",–
CC(C)CC(=O)N1CCN(C(=O)c2ccc(-c3ccccc3)cc2)CC1,-19.3,–,"29.1 µM [falling, single point]"
CC1(C)CC(NC(=O)CC(c2ccccc2)c2ccccc2)CC(C)(C)N1,–,–,"0.58 µM [rising, single point]"
Cc1cc2cc(CCNC(=O)CCc3ccccc3)c(=O)[nH]c2cc1C,18.9,–,–
CN(C)CCCN(C(=O)c1ccc(S(=O)(=O)N2CCc3ccccc3C2)cc1)c1nc2ccc(F)cc2s1,-36.6,"13 µM [falling, single point]","23.1 µM [falling, single point]"
CCc1ccc(NC(=O)Cn2nc(C(=O)O)c3ccccc3c2=O)cc1,3.81,–,–
Cc1cnc(NC(=O)COc2ccccc2)s1,-19.8,–,"1.46 µM [rising, partial curve, poor fit]"
COc1ncnc2c1cnn2-c1ccccc1,-21,"0.13 µM [falling, full curve, poor fit]","29.1 µM [falling, single point]"
O=C(NCc1ccccn1)c1cccc(S(=O)(=O)N2CCCCC2)c1,3.28,–,"18.4 µM [rising, single point]"
CCOc1ccc(/C=N/NC(=O)CSc2ccccn2)cc1O,23.4,–,"1.03 µM [rising, partial curve]"
N#Cc1cc2c(nc1SCC(=O)Nc1nccs1)CCCCC2,–,"0.651 µM [rising, full curve]","0.517 µM [rising, full curve]"
CC1CCC/C(=N\NC(=S)NCc2ccccc2)C1 (stereo not drawn),29.5,–,–
C/C(=N\NC(=O)CCC(=O)Nc1ccc(C)c(C)c1)c1cccs1,-0.446,"0.103 µM [falling, full curve, poor fit]",–
C/C(=N\N=C(N)N)c1ccc(Cl)cc1Cl,–,"0.291 µM [falling, partial curve]",–
CC(C)C(C)(C#N)NC(=O)CSc1ncnc2sc(-c3ccccc3)cc12 (stereo not drawn),-13.5,–,"0.82 µM [rising, single point]"
CC1CCCC(C)N1CCCNC(=O)Cn1ncc2c([nH]c3ccccc32)c1=O (stereo not drawn),20,–,–
O=C(C1CCN(S(=O)(=O)c2cccc3nsnc23)CC1)N1CCCCC1,-9.43,–,"6.51 µM [falling, single point]"
CCCCn1c(CCC(=O)O)nc2cc(S(=O)(=O)N(CC)CC)ccc21,15.1,–,"29.1 µM [falling, single point]"
COc1ccc(C(=O)OC(C)CN2CCN(C)CC2)cc1OC (stereo not drawn),-1.94,–,"6.51 µM [rising, single point]"
C(=N\Nc1nncn1/N=C/c1ccco1)/c1ccco1,35.7,"4.11 µM [rising, full curve, poor fit]","23.1 µM [rising, single point]"
CCOc1ccccc1NC(=O)C(Sc1ccccc1)c1ccccc1 (stereo not drawn),-1.93,–,"0.517 µM [falling, full curve]"

# Sorted by formula weight (largest number first): part of the list above.
SMILES,cell number change [%],AC50 [1],AC50 [2]
CCc1ccc(NC(=O)Cn2nc(C(=O)O)c3ccccc3c2=O)cc1,3.81,–,–
CC(C)CC(=O)N1CCN(C(=O)c2ccc(-c3ccccc3)cc2)CC1,-19.3,–,"29.1 µM [falling, single point]"
C/C(=N\NC(=O)CCC(=O)Nc1ccc(C)c(C)c1)c1cccs1,-0.446,"0.103 µM [falling, full curve, poor fit]",–
COc1ccc(C(=O)OC(C)CN2CCN(C)CC2)cc1OC (stereo not drawn),-1.94,–,"6.51 µM [rising, single point]"

# (more compounds)

SMILES,cell number change [%],AC50 [1],AC50 [2]
COc1cccc(OC)c1C1=CC(=O)C[C@H](c2ccc3c(c2)OCO3)C1,–,"1.3 µM [falling, partial curve]","0.164 µM [falling, full curve, poor fit]"
CCCN(CC(=O)Nc1ccccc1C)C(=O)c1ccc(C(=O)c2ccccc2)cc1,55.3,"29.1 µM [rising, single point]",–
N#Cc1c2c(c(N3CCN(c4ccccn4)CC3)n3c1nc1ccccc13)CCC2,18,–,–
O=C(Nc1ccc(N2CCN(C(=O)c3ccccc3F)CC2)cc1)c1cncc(Br)c1,-34.9,"16.4 µM [falling, single point]",–
Cc1ccc(C)c(N(C(=O)c2ccco2)C(C(=O)NC2CCCC2)c2ccco2)c1 (stereo not drawn),-29.5,–,–
Cc1cc(C(=O)C(C)OC(=O)c2ccc(NC(=O)CC#N)cc2)c(C)n1-c1ccccc1 (stereo not drawn),–,"3.26 µM [rising, single point]","2.59 µM [rising, single point]"
Cc1cc(=O)oc2c(C)c(OC(C)C(=O)NCCCn3ccnc3)ccc12 (stereo not drawn),3.62,–,–
Cc1ccc(C(C(=O)NC2CCCC2)N(C(=O)Cc2cccs2)c2ccc(C)c(C)c2)o1 (stereo not drawn),38.6,"29.1 µM [rising, single point]","29.1 µM [rising, single point]"
CCOc1ccccc1NC(=O)CC1(CC(=O)N2CCOCC2)CCCC1,2.89,–,"0.103 µM [falling, full curve, poor fit]"
COc1ccc(C)cc1Nc1cc(C)nc2nc(C)nn12,30.4,"29.1 µM [rising, single point]",–
O=C(NCCN1C(=O)C2C3C=CC(C3)C2C1=O)Nc1ccc(Br)cc1 (stereo not drawn),6.06,–,"29.1 µM [rising, single point]"
CCc1ccc(C(=O)N2CCN(S(=O)(=O)c3sc(C(=O)O)c(C)c3C(=O)O)CC2)cc1,36.9,"23.1 µM [rising, partial curve]",–
COC(=O)c1ccc(CSc2nnc(-c3c[nH]c4ccccc34)n2-c2ccccc2)cc1,-8.43,–,"29.1 µM [falling, single point]"
N#Cc1ccccc1NC(=O)COC(=O)CSc1nc2ccccc2o1,-102,"32.6 µM [falling, single point]",–
COc1ccc(-c2nc(CN3CCCCC3c3nccn3C)c(C)o2)c(C)c1C (stereo not drawn),12,–,–
CCOc1ccc2nc(N3CCCC(C(=O)N4CCN(CC)CC4)C3)sc2c1 (stereo not drawn),-56.8,"4.11 µM [falling, single point]",–
COc1ccc(NC(=S)NCCc2ccc(F)cc2)c(OC)c1,-6.79,"6.51 µM [rising, partial curve, poor fit]","7.31 µM [rising, partial curve, poor fit]"
COC(=O)Cc1c(C)c2ccc(O)c(CNCc3ccc(OC)c(OC)c3)c2oc1=O,21.5,–,–
COC(=O)C1=C(C)N=C2SC(C#N)=C(N)N2C1c1ccc(OC)cc1 (stereo not drawn),–,–,"7.31 µM [falling, partial curve]"
O=C(CSc1nnc2c(n1)[nH]c1ccccc12)Nc1nncs1,-30.5,"11.6 µM [falling, partial curve]",–
Cn1c(=O)c2sccc2n2c(CCCC(=O)NCc3cccnc3)nnc12,18.7,–,"0.58 µM [falling, single point]"

SMILES,cell number change [%],AC50 [1],AC50 [2]
C/C(=N/NS(=O)(=O)c1ccc(C)cc1)[C@H]1C[C@@H]1c1ccccc1,-20.9,"0.366 µM [falling, full curve, poor fit]",–
O=C(CSc1nccc(=O)[nH]1)Nc1ccc(N2CCOCC2)c(Cl)c1,-0.952,–,"29.1 µM [falling, single point]"
O=C(NC(=S)Nc1cc(S(=O)(=O)N2CCOCC2)ccc1N1CCOCC1)c1ccco1,–,–,"0.00461 µM [rising, full curve, poor fit]"
COc1ccc(C(C)NC(=O)c2ccncc2)cc1 (stereo not drawn),21.8,–,"0.058 µM [falling, full curve, poor fit]"
O=C(Nn1cnnc1)C1Cc2ccccc2CN1S(=O)(=O)c1ccc(F)cc1 (stereo not drawn),-76.4,"32.6 µM [falling, single point]",–
Cc1ccc(-c2noc(CN(C(=O)CCCCCN3C(=O)c4ccccc4C3=O)C(C)C)n2)cc1,-15.4,–,"0.58 µM [rising, partial curve]"
O=C(Nc1cccc2ccccc12)c1ccc([N+](=O)[O-])s1,-45.3,"29.1 µM [falling, single point]","0.13 µM [falling, full curve, poor fit]"
COc1ccc(/C=C/C(=O)Nc2cc(S(=O)(=O)N3CCOCC3)ccc2N2CCCC2)cc1OC,–,"0.517 µM [rising, partial curve]","1.16 µM [rising, partial curve]"
CC(NS(=O)(=O)c1ccc2c(c1)C(=O)c1cc(S(=O)(=O)NC(C)C(=O)O)ccc1-2)C(=O)O (stereo not drawn),15.3,–,"6.51 µM [rising, single point]"
O=C(O)CC(CC(=O)Nc1ccccc1C(=O)O)c1ccccc1 (stereo not drawn),-22.3,–,"20.6 µM [falling, single point]"
CCOc1ccc(NCc2nnc(SCC(=O)Nc3nc(-c4ccccc4)cs3)n2-c2ccccc2)cc1,-15.9,–,"29.1 µM [falling, single point]"
O=c1[nH]c(CN2CCN(S(=O)(=O)c3ccc4c(c3)OCCO4)CC2)nc2sc3c(c12)CCCC3,11,–,–
CC(C)C[C@H](NC(=O)NCc1ccccc1Cl)C(=O)O,-22,–,"7.31 µM [falling, partial curve, poor fit]"
CN1CCC(N(C)C(=O)c2cc(-c3ccccc3Cl)nc3ccccc23)CC1,1.1,–,"0.092 µM [falling, full curve, poor fit]"
O=C1CC(=O)Nc2cc(S(=O)(=O)N3CCN(c4ccc([N+](=O)[O-])cc4)CC3)ccc2N1,21.7,–,–
COC(=O)c1ccc(NC(=O)Nc2cccc(F)c2)cc1,-40.8,"29.1 µM [falling, single point]","32.6 µM [falling, single point]"
O=C1CC(c2ccccc2)=Nc2ccccc2N1,12.1,–,–
Cc1cc(N=Cc2c(O)n(-c3ccc(C)c(C)c3)c(=O)c3ccccc23)no1,-21.5,"0.116 µM [falling, full curve]",–
Cc1ccc(CN2CCN(/N=C/c3ccc(N(C)C)cc3)CC2)cc1,-3.64,–,"4.11 µM [falling, full curve]"
